Measured values published in PubChem BioAssay AID1347423 (Functional Genomics Laboratory (NCATS/FGL), 2020).
Out of some 52,000 sequences screened, about 210 (0.4%) were called active.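 Rule for the calls: active = gene whose silencing raises cell survival under the drug, median off-target-corrected z-score across its silencing RNAs 2 or more; inactive = the rest.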 Some of the results follow.

Experiment: Resistance to Poly (ADP-Ribose) Polymerase inhibitor: Gene Identification via Genome-wide siRNA Screen
Conditions: mouse BRCA2 R2336H ES cells, olaparib, CellTiter-Glo viability; hits give high values
How it was run: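 Genome-wide siRNA screen (3 siRNAs/gene, 20 nM) in mouse ES cells carrying hypomorphic BRCA2 R2336H; olaparib 500 nM added 48 h post-transfection, CellTiter-Glo viability 72 h later. Normalized to plate-median negative control; MAD z-scores, gene median, seed-adjusted.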

| Sequence | z-score |
| --- | --- |
| GGAUGACCAACAACUAAAGTT against Sytl2 | inactive: -0.403 |
| GGUCUUUGUCAUCAAAGGUTT against Xtrp3s1 | inactive: 0.539 |
| GGCAGAAUGCACAGAACCUTT against Cpz | inactive: -1.15 |
| GCCUCUUUGUAAAAAUUCUTT against Atp6v0b | inactive: -0.521 |
| CGAUGAUCUUACACUACCCTT against Irx6 | inactive: -0.771 |
| GCAGCUCAAUUAGAGUCCATT against Gart | inactive: -0.027 |
| GGACAACCAAGGAAGAAACTT against BC049635 | inactive: 0.289 |
| GGACUGGGAAGAUGAUGAATT against 1110012L19Rik | inactive: -1.65 |
| GGUGUAGUAGUGAACUUGATT against Trib1 | inactive: 1.19 |
| GCUCUACUCCUUACCUAGUTT against 2610200G18Rik | inactive: 0.517 |
| GGUGUUCUUUGACAGUGCCTT against Atp5d | inactive: -1.33 |
| GGAUUUAUGCAUUUCUCCATT against Exosc8 | inactive: -1.07 |
| GCACCGAGACUUGUCAGAGTT against Rab36 | inactive: 1.05 |
| GGACAUUGUGACAUCAUGUTT against Diras2 | inactive: 0.251 |
| GGAAUUCAUCUACAGAGAATT against Dpp6 | inactive: 1.21 |
| GGCCUUCUGUGUGGUCUAUTT against Kcnk7 | inactive: -2.4 |
| GGCUUUCCUAGGGAUGUCUTT against S100a3 | inactive: 1.17 |
| CGAGCUUAAUCAUUGCCUGTT against Eprs | inactive: -1.6 |
| GGAUGUGGAAGAAUUUCUGTT against Mrpl49 | inactive: 0.271 |
| ACAUUUAUCACGACCCUUCTT against Olfr777 | inactive: -0.887 |
| GGAAGUGAUCCGAAAAUCATT against Mbd2 | inactive: -0.138 |
| GCUUGUCCAAUGCCUAUUCTT against 5430428G01Rik | inactive: -1.7 |
| CGUCGGUUUCUCCCUGAAATT against Tdpoz5 | inactive: -1.32 |
| GGAGAGAAAAUCUUCCAUUTT against Pramel6 | inactive: 0.489 |
| GGCAGAAACCCUUCUAUGUTT against Bmp8a | inactive: 0.528 |
| GGGCAUUUCAUAAGCUACATT against 4932435O22Rik | inactive: -0.0355 |

Individual results from above:
In z-score, GGAUUUAUGCAUUUCUCCATT against Exosc8 is entered as inactive: -1.07
In z-score, GCUUGUCCAAUGCCUAUUCTT against 5430428G01Rik is entered as inactive: -1.7
In z-score, GGACAUUGUGACAUCAUGUTT against Diras2 is entered as inactive: 0.251
In z-score, ACAUUUAUCACGACCCUUCTT against Olfr777 is entered as inactive: -0.887

Following part:

| Sequence | z-score |
| --- | --- |
| GGUGUUGCUGGUGAAGGACTT against 2810401C16Rik | inactive: -1.01 |
| GGCCUUUGAGGUCUACAUATT against Icam2 | inactive: -1.48 |
| GGAACACCAACCAGAAUAATT against Serpina3n | inactive: -0.564 |
| GCGUGCUACCUGAAUAAGATT against Hist3h2ba | inactive: 0.0844 |
| GGGAAGAUCAUUGUUUAUATT against Pgcp | inactive: 1.73 |
| GGAAACCACUUGAUCAGCATT against Ube4a | inactive: -0.0419 |
| GGUUGGAUUCCUGAUAUUATT against Dbhl1 | inactive: -1.48 |
| GGGAAGGUGGCCUACAUCATT against 1110005F07Rik | inactive: 1.69 |
| GGCGCACAUAUCUGAUCUUTT against 1200002G13Rik | inactive: 1.11 |
| GGAUCAUCUAUACAGCACATT against Tgfb1i1 | inactive: 0.894 |
| GGAAACCAGAACAUCACUUTT against Olfr829 | inactive: -0.971 |
| GGCUGAAUUUUGUGACUAUTT against Il18r1 | inactive: 2.32 |
| GGUCAGAAAAACAACCACGTT against Phxr5 | inactive: -0.832 |
| GCCUCUUCAUGUCAGUCCCTT against Capn12 | inactive: 0.65 |
| GGACUAUGCCGAUAAUAUCTT against Rab24 | inactive: 0.812 |
| GGAAAAACUACAUGGUAAATT against 1700016F23Rik | inactive: -0.947 |
| GGAAUUCAGAGACAGACUATT against Fpr-rs4 | inactive: -1.45 |
| GCUAGACCUCACUGUUUUUTT against Sprr2i | inactive: 0.816 |
| GGUUGAAGACUUCUUACUUTT against Cdc25a | inactive: -0.11 |
| GCUCACACUCUUCAUUAUCTT against Olfr1408 | inactive: 0.574 |
| GGAGCAACAGCCAAAUACCTT against 1700001F22Rik | inactive: 0.124 |
| GCUCCUAUUACCAAAUUAATT against Olfr747 | inactive: 0.558 |
| GCCCAAGUGUACUACCGUGTT against Ece1 | inactive: 0.0965 |
| GGACUUCAGCAACUAUAGUTT against Ggtl3 | inactive: 0.246 |
| GGUUCUUCCCACAGAAGACTT against Pggt1b | inactive: 1.33 |
| GGAUGAGGUGAUUAAAGAATT against Cd9 | inactive: 2.08 |
